Test results reported in patent publication US20210059959A1, “USE OF CANNABINOIDS IN THE TREATMENT OF MENTAL DISORDERS” (GW Pharma Limited, priority 2015, published 2021).

Test: Solubility of the drug substance in water
Assay type: physicochemical
Source text: Sesame oil was selected as an excipient to solubilize the drug substance.

SMILES: C=C(C)[C@@H]1CCC(C)=C[C@H]1c1c(O)cc(CCCCC)cc1O [CBD, Cannabidiol]
- Solubility in water: insoluble in water
